Reference: paper PMC10427353
No constants are given. Whether binding was seen depends on the method and setting. In cells and extracts the contact can be indirect. Some binding calls cover weakened binding; strength is not graded here. For some assays here: Sequences can lack the tags named with a protein.

Sequences of proteins named here, by UniProt entry; tags and fusion partners are left off.
UniProt P42227: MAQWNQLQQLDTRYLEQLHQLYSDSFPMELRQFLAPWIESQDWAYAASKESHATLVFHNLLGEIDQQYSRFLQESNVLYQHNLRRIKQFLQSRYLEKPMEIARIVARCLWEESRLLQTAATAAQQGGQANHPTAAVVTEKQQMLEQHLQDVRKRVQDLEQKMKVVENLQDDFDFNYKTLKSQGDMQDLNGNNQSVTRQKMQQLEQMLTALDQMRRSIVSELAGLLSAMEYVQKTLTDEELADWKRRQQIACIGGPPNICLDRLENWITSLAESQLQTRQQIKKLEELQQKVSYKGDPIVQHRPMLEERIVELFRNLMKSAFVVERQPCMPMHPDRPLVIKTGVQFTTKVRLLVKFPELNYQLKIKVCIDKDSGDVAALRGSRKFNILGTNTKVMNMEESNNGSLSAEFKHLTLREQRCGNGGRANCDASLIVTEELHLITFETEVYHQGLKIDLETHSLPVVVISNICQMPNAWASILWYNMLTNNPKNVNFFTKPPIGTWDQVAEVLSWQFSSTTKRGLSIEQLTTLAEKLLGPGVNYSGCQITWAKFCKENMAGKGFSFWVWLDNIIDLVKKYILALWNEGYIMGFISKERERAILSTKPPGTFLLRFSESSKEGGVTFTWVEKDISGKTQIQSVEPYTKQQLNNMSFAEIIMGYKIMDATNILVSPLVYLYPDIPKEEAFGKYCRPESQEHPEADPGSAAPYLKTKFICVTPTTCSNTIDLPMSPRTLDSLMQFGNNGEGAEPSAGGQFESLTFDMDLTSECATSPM

Key:
[1] = target: Signal transducer and activator of transcription 3 (STAT3) (mouse (endogenous in liver tissue)) (UniProt P42227); assay: co-IP; endogenous proteins in liver tissue lysates of WT mice; indicated antibody with protein A/G magnetic beads at 4 °C overnight, immunoblot; which protein was precipitated is not told
Flag‐STAT3 (mouse) = Flag‐STAT3 (mouse) (UniProt P42227); assay: co-IP; HEK293T cells transfected with Myc‐MSL1 with or without Flag‐STAT3 or Flag‐H4 for 24 h; for STAT3 without or with 10 ng mL^-1 IL‐6 for 30 min; indicated antibody with protein A/G magnetic beads at 4 °C overnight, immunoblot

Binder	binding [1]	binding (Flag‐STAT3 (mouse))
Male‐specific lethal 1 (MSL1) (protein, UniProt Q6PDM1 1-616) MTMRSAVFKAAAAPAGGNPEQRLDYERAAALGGPEDESGAAEAHFLPRHRKLKEPGPPLASSQGGSPSPSPAGCGGGKGRGLLLPAGAAPGQQEESWGGSVPLPCPPPATKQAGIGGEPVAAGAGCSPRPKYQAVLPIQTGSIVVAAAKEPTPWAGDKGGAAPPAATASDPAGPPPLPLPGPPPLAPTATAGTLAASEGRWKSIRKSPLGGGGGSGASSQAACLKQILLLQLDLIEQQQQQLQAKEKEIEELKSERDTLLARIERMERRMQLVKRDNEKERHKLLQGYEPEEREEAELSEKIKLERQPELCETSQALPSKPFSCGRSGKGHKRKTPFGNTERKTPVKKLAPEFSKVKTKTPKHSPIKEEPCGSISETVCKRELRSQETPEKPRSSVDTPPRLSTPQKGPSTHPKEKAFSSEMEDLPYLSTTEMYLCRWHQPPPSPLPLRESSPKKEETVARCLMPSSVAGETSVLAVPSWRDHSVEPLRDPNPSDILENLDDSVFSKRHAKLELDEKRRKRWDIQRIREQRILQRLQLRMYKKKGIQESEPEVTSFFPEPDDVESLLITPFLPVVAFGRPLPKLAPQNFELPWLDERSRCRLEIQKKHTPHRTCRK	binds	–
Myc‐MSL1 (protein, UniProt Q6PDM1 1-616) MTMRSAVFKAAAAPAGGNPEQRLDYERAAALGGPEDESGAAEAHFLPRHRKLKEPGPPLASSQGGSPSPSPAGCGGGKGRGLLLPAGAAPGQQEESWGGSVPLPCPPPATKQAGIGGEPVAAGAGCSPRPKYQAVLPIQTGSIVVAAAKEPTPWAGDKGGAAPPAATASDPAGPPPLPLPGPPPLAPTATAGTLAASEGRWKSIRKSPLGGGGGSGASSQAACLKQILLLQLDLIEQQQQQLQAKEKEIEELKSERDTLLARIERMERRMQLVKRDNEKERHKLLQGYEPEEREEAELSEKIKLERQPELCETSQALPSKPFSCGRSGKGHKRKTPFGNTERKTPVKKLAPEFSKVKTKTPKHSPIKEEPCGSISETVCKRELRSQETPEKPRSSVDTPPRLSTPQKGPSTHPKEKAFSSEMEDLPYLSTTEMYLCRWHQPPPSPLPLRESSPKKEETVARCLMPSSVAGETSVLAVPSWRDHSVEPLRDPNPSDILENLDDSVFSKRHAKLELDEKRRKRWDIQRIREQRILQRLQLRMYKKKGIQESEPEVTSFFPEPDDVESLLITPFLPVVAFGRPLPKLAPQNFELPWLDERSRCRLEIQKKHTPHRTCRK	–	binds
